Measurements: publication PMC4758748
Results are given in words; binding and its absence hold for the method and conditions named. Some binding calls cover weakened binding; strength is not graded here. Sequences can lack the tags named with a protein.

T1: Chs2-1-629 (two-hybrid fusion) (S. cerevisiae) (UniProt P14180)
T1 sequence: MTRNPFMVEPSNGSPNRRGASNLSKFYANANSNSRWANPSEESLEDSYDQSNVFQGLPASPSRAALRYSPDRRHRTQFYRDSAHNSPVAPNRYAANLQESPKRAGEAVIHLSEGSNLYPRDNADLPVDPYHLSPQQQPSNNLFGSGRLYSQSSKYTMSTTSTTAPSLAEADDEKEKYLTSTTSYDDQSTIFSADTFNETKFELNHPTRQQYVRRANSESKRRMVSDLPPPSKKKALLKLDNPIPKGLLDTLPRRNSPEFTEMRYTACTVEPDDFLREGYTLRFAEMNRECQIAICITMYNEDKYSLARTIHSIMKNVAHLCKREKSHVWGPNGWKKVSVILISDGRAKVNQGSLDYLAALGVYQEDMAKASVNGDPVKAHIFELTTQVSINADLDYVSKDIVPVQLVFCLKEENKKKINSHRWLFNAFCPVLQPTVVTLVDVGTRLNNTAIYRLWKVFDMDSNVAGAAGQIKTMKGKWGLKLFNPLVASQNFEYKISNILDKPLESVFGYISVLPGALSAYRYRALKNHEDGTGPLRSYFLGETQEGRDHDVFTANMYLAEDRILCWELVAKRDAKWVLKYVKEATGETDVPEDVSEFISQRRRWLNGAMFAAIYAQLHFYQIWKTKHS

T2: Chs2-215-629 (two-hybrid fusion) (S. cerevisiae) (UniProt P14180)
T2 sequence: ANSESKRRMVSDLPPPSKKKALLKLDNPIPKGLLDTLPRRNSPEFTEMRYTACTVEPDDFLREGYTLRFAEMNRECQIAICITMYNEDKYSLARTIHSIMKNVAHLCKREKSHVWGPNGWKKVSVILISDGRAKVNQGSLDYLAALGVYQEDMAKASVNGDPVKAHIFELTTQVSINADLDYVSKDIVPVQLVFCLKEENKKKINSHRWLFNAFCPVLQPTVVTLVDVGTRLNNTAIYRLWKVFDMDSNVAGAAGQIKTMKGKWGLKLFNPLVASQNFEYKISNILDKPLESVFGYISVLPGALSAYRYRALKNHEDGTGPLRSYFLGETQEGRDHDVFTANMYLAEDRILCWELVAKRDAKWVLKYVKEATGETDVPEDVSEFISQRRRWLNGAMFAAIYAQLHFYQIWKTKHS

B1: Cyk3-1-594 (two-hybrid fusion) (domain or fragment, UniProt Q07533 1-594)
chain: MATNLTSLKPPFKVKARYGWSGQTKGDLGFLEGDIMEVTRIAGSWFYGKLLRNKKCSGYFPHNFVILLEERLNSSTENGRQPSKIVESFEKSNKVVIPPVPSRYSDERPRPKKKLSSSMPNSPKKPVDSLTKARKAKSKEMVNEKNIYNTQSSRHHNNSAPNLPLASHSKPQVRNFEESMNNPLPPLPPLPDLDNMRKTDKRAPKKSYSANDLHMARSSREYNYYKDNQKFYDGFIPEKRYSLEEDSISSGLFSNSQYLNDSACSSENSFALMSDFSATSAGSFARHKYAQSFSDSLQRSQNANGCSTKINDSQEFGDSNASSRNGKMGDILRKIIIPKRNTNIYSSSVSSPKSPKAYPKLPDIQNLNLSATPDEARDWIAVKCHLNRARTLTKYDKHPRYMRALEENRDLILHPQDSIYNGLNTNEVKGNTKPGLVDVELAELNIEYIDKMTWKRCIRDGTMTLDSWAQTTFSARYSTVLEKLRGIYIFCTEMFALTDDNGTSDFSAEPQNLEKILYRKHCTPYELTWLFKKLANSLGITCEIVIGFLKTPSAINWEFKYNHCWLRILVNKEWRFIDVILGNVTNPIHEFVNN
B2: Cyk3-475-885 (two-hybrid fusion) (domain or fragment, UniProt Q07533 475-885)
chain: ARYSTVLEKLRGIYIFCTEMFALTDDNGTSDFSAEPQNLEKILYRKHCTPYELTWLFKKLANSLGITCEIVIGFLKTPSAINWEFKYNHCWLRILVNKEWRFIDVILGNVTNPIHEFVNNRKIKKAENSYFLMAPLEMIYTHIPPREFEQHIVPSIDQLSALYLPLVFPSFFKNELKLYKFSTALSFLEDSEIYECSLEIPNDVEVFASVVIPTDNEEASSAYRNMELALTQIKKQKAESGRRIALIKAVLPPNVNKGSLYIHSGVRGTQTSIANIHPLSMMVPLTHKGSNMKYEFVIKIPSESIQKIELYIVEPQSRYLFVGNEYSFEVIQSPSDGIVYSSDEGPNQNRKQPMAIKSPSGRVHELVKSDPHFPYGTWKGSIKIKEPGVWSALVIADSGIGWSVFAEWLCV
B3: Cyk3-475-764 (two-hybrid fusion) (domain or fragment, UniProt Q07533 475-764)
chain: ARYSTVLEKLRGIYIFCTEMFALTDDNGTSDFSAEPQNLEKILYRKHCTPYELTWLFKKLANSLGITCEIVIGFLKTPSAINWEFKYNHCWLRILVNKEWRFIDVILGNVTNPIHEFVNNRKIKKAENSYFLMAPLEMIYTHIPPREFEQHIVPSIDQLSALYLPLVFPSFFKNELKLYKFSTALSFLEDSEIYECSLEIPNDVEVFASVVIPTDNEEASSAYRNMELALTQIKKQKAESGRRIALIKAVLPPNVNKGSLYIHSGVRGTQTSIANIHPLSMMVPLTHKGS
B4: Cyk3-1-475 (two-hybrid fusion) (domain or fragment, UniProt Q07533 1-475)
chain: MATNLTSLKPPFKVKARYGWSGQTKGDLGFLEGDIMEVTRIAGSWFYGKLLRNKKCSGYFPHNFVILLEERLNSSTENGRQPSKIVESFEKSNKVVIPPVPSRYSDERPRPKKKLSSSMPNSPKKPVDSLTKARKAKSKEMVNEKNIYNTQSSRHHNNSAPNLPLASHSKPQVRNFEESMNNPLPPLPPLPDLDNMRKTDKRAPKKSYSANDLHMARSSREYNYYKDNQKFYDGFIPEKRYSLEEDSISSGLFSNSQYLNDSACSSENSFALMSDFSATSAGSFARHKYAQSFSDSLQRSQNANGCSTKINDSQEFGDSNASSRNGKMGDILRKIIIPKRNTNIYSSSVSSPKSPKAYPKLPDIQNLNLSATPDEARDWIAVKCHLNRARTLTKYDKHPRYMRALEENRDLILHPQDSIYNGLNTNEVKGNTKPGLVDVELAELNIEYIDKMTWKRCIRDGTMTLDSWAQTTFSA
B5: full-length Inn1 (two-hybrid fusion) (protein, UniProt P53901 1-409)
chain: MSEEVWNGNQGILSVYVSKARDLPNLNKLDKQNVMLRLRIAHMTRASNTLHRAGQNPVFHYLEKFDITPEIKPLMYVEVYCDRRKKSPLPIGRCEIDLLNAIRADPKEGYCTWYELKRSGDEFAGTIFIELTFTPKVPRLNRDDLNKEMDRLDSSMAMRPIPPLPTESEYDYVHGSTMRQITPQCVSTSHEDKDEGQPYRNGNVFSMSSKSDTAVLANSNDPIILPPTFSASMGTTSTLETNDTAISNTSNTKFHFANLRKLKEKINIFKNPDSSTNNCQNESNKVDIEALQKAIGVTSLSYDEDDDDDDENDAFYSSSHRVSHNYNQPPLPPIPTRDDMSNYSSSRNTPLVRRDRPSRLDSSSPNSHPHPSGLNSPKLPPLPTTSNSNFNSRKNSMSPTRKRPPPRLS

molecular target: T1, Chs2-1-629 (two-hybrid fusion) (S. cerevisiae); assay: two-hybrid; vectors pGADT7 and pGBKT7 (Clontech); growth for two or three days at 30°C on Synthetic Complete medium lacking leucine, tryptophan and histidine (selective)

binding	Binder
binds	B1
binds	B2
no binding	B3
binds	B4

molecular target: T2, Chs2-215-629 (two-hybrid fusion) (S. cerevisiae); assay: as above

binding	Binder
binds	B1
binds	B2
binds	B5
binds	B3
binds	B4
